Values quoted from earlier work as cited in patent publication US9366676B2, “Fluorescent chemical compounds having high selectivity for double stranded DNA, and methods for their use” (LIFE TECHNOLOGIES CORPORATION, priority 2005, dated 2016).
For at least one compound, name, drawing or mass did not settle the structure.

Conditions: cited from earlier work

SMILES: CCCN1C=C/C(=C\c2sc3ccccc3[n+]2C)c2ccccc21 [SYBR Safe]
- mutagenicity: reduced mutagenicity
